Data as given in PubChem BioAssay AID652272 (Drosophila RNAi Screening Center, 2013)
The deposit covers about 21,000 reagents; below is an unselected part of those with a known target gene and a result. In the full data, 503 (2.4%) were called active. 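Raw plate light values, not normalised; calls rest on replicate z-scores that were not deposited; hits include reporter decreases as well as increases.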 Unmarked entries are inactive. Names joined by + are all predicted targets of the reagent. Not stated in the record: the amount of reagent, the time to read-out.

Aim: 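Genes whose knock-down decreases or increases Hedgehog reporter output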 (primary screen)
Cells: Drosophila clone 8 (Cl8) cells
Knock-down reagent: long dsRNA against Drosophila genes
Measurement: 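Plate reader light from a firefly reporter under a ptc promoter fragment that responds to Hedgehog, with Renilla light as transfection reference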
Scale: firefly Hh reporter signal: higher = more ptc reporter light; Renilla reference signal: higher = more Renilla control light
Active means: 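Hit when the z-score averaged over two replicates is under -2 or over +3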
Meaning of the calls: active = hit: reporter lowered or raised; inactive = not a hit

| gene | amplicon | firefly Hh reporter signal, replicate 1 | firefly Hh reporter signal, replicate 2 | firefly Hh reporter signal, replicate 3 | Renilla reference signal, replicate 1 | Renilla reference signal, replicate 2 |
| --- | --- | --- | --- | --- | --- | --- |
| Als2 (GeneID 40410) | DRSC11806 | 97122 | 72097 | – | 3883 | 3058 |
| CG34040 (GeneID 3885655) | DRSC03902 | 1.52e5 | 1.85e5 | – | 3930 | 8699 |
| Sos (GeneID 34790) | DRSC03439 | 1.07e5 | 46776 | – | 2784 | 3857 |
| Taz (GeneID 36405) | DRSC07704 | 1.29e5 | 6.77e5 | 1.10e5 | 3298 | 42636 |
| CG14506 (GeneID 43467) | DRSC14858 | 80073 | 84802 | – | 1777 | 2396 |
| aqz + CG9837 | DRSC12709 | 2.86e5 | – | – | 6852 | – |
| mthl14 (GeneID 318046) | DRSC07865 | 1.21e5 | 1.74e5 | – | 3405 | 6918 |
| FucTA (GeneID 39653) | DRSC10733 | 60091 | – | – | 1019 | 1865 |
| FMRFa (GeneID 36030) | DRSC07428 | 96132 | 52098 | – | 2256 | 4579 |
| Pus1 (GeneID 42440) | DRSC15548 | 7.55e5 | 1.38e5 | – | 43193 | 3532 |
| CG31473 (GeneID 318753) | DRSC15443 | 1.03e5 | 1.58e5 | – | 2709 | 4471 |
| sta (GeneID 31106) | DRSC18838 | 28089 (active) | 1.12e5 | – | 2229 | 7689 |
| Lsm12a (GeneID 32167) | DRSC19702 | 1.08e5 | 3.52e5 | – | 2264 | 13318 |
| Tsp42Eb + CG30160 | DRSC04961 | 1.48e5 | 2.41e5 | – | 3595 | 9850 |
| Tsp42Eb + CG30160 | DRSC06791 | 1.01e5 | 64586 | – | 2617 | 6347 |
| su(r) (GeneID 31858) | DRSC18705 | 70429 | 48721 | – | 1804 | 1384 |
| Achl (GeneID 36605) | DRSC06665 | 82018 | 50861 | – | 2128 | 4259 |
| Lcp65Aa (GeneID 38709) | DRSC11209 | 46016 | 50674 | – | 5461 | 4072 |
| CG12126 (GeneID 35805) | DRSC06103 | 1.13e5 | 63324 | – | 3062 | 4461 |
| CG34056 (GeneID 38106) | DRSC08374 | 57120 | 46327 | – | 1703 | 3452 |
| CG11672 (GeneID 40977) | DRSC14344 | 71520 | 98131 | – | 3081 | 2579 |
| Zip99C (GeneID 43533) | DRSC16320 | 1.45e5 | 79696 | – | 3312 | 2132 |
| Nsun2 (GeneID 45064) | DRSC18662 | 1.52e5 | 1.53e5 | – | 3127 | 5123 |
| ssx (GeneID 31086) | DRSC18492 | 83669 | 1.01e5 | – | 904 | 2823 |
| CG3603 (GeneID 31289) | DRSC18317 | 1.00e5 | 2.50e5 | – | 4048 | 9312 |
| Letm1 (GeneID 37912) | DRSC04476 | 65693 | 45367 | – | 2273 | 1529 |
| png (GeneID 31084) | DRSC18582 | 63650 | 1.58e5 | – | 1808 | 6600 |
| CG8064 (GeneID 42196) | DRSC16373 | 1.13e5 | 68544 | – | 4880 | 3376 |

3 entries from above in another layout:
FucTA (GeneID 39653) [DRSC10733]
- firefly Hh reporter signal, replicate 1: 60091
- Renilla reference signal, replicate 1: 1019
- Renilla reference signal, replicate 2: 1865

FMRFa (GeneID 36030) [DRSC07428]
- firefly Hh reporter signal, replicate 1: 96132
- firefly Hh reporter signal, replicate 2: 52098
- Renilla reference signal, replicate 1: 2256
- Renilla reference signal, replicate 2: 4579

Pus1 (GeneID 42440) [DRSC15548]
- firefly Hh reporter signal, replicate 1: 7.55e5
- firefly Hh reporter signal, replicate 2: 1.38e5
- Renilla reference signal, replicate 1: 43193
- Renilla reference signal, replicate 2: 3532

Additional records follow.
| gene | amplicon | firefly Hh reporter signal, replicate 1 | firefly Hh reporter signal, replicate 2 | firefly Hh reporter signal, replicate 3 | Renilla reference signal, replicate 1 | Renilla reference signal, replicate 2 |
| --- | --- | --- | --- | --- | --- | --- |
| CG15506 (GeneID 43498) | DRSC15047 | 76637 | 83499 | – | 2281 | 2407 |
| CG33232 (retired record) (GeneID 2769004) | DRSC08187 | 80048 | 78342 | – | 3880 | 3462 |
| CG33232 (retired record) (GeneID 2769004) | DRSC08495 | 1.13e5 | 41179 | – | 2417 | 3080 |
| Cds (GeneID 43950) | DRSC10938 | 1.85e5 | 96208 | – | 6267 | 3616 |
| Elp3 (GeneID 33649) | DRSC00448 | 83332 | 45163 | – | 2026 | 5303 |
| Acp53C14c (GeneID 3346203) | DRSC05626 | 76562 | 1.83e5 | – | 2387 | 7077 |
| Polr3E (GeneID 40325) | DRSC11880 | 52960 | 87131 | – | 2312 | 3079 |
| TotZ (GeneID 117459) | DRSC13450 | 36706 | 2.26e5 | – | 7424 | 5368 |
| CG6431 (GeneID 34476) | DRSC02956 | 1.29e5 | 48130 | – | 3266 | 5378 |
| CG34342 (GeneID 5740152) | DRSC09756 | 39606 | 79671 | – | 4723 | 5836 |
| CG14720 (GeneID 41415) | DRSC14942 | 94198 | 1.04e5 | – | 2214 | 2908 |
| CG1951 (GeneID 43423) | DRSC15403 | 1.02e5 | 1.25e5 | – | 1576 | 3272 |
| Cyp12e1 (GeneID 41272) | DRSC16622 | 89648 | 70033 | – | 2936 | 2362 |
| Vha36-2 (GeneID 36328) | DRSC06294 | 98845 | 44099 | – | 2154 | 3089 |
| Sas-4 (GeneID 40859) | DRSC12505 | 85160 | 1.01e5 | – | 3458 | 2689 |
| CG1835 (GeneID 33057) | DRSC20560 | 65841 | 2.19e5 | – | 2394 | 8600 |
| smg (GeneID 39034) | DRSC11397 | 85168 | 27847 | – | 3801 | 1269 |
| esn (GeneID 53557) | DRSC05039 | 1.18e5 | 1.27e5 | – | 2480 | 5388 |
| esn (GeneID 53557) | DRSC06181 | 1.14e5 | 45512 | – | 2850 | 4640 |
| esn (GeneID 53557) | DRSC07612 | 93737 | 46487 | – | 2338 | 3431 |
| lncRNA:CR43498 (GeneID 12797960) | DRSC17621 | 4.49e5 | 1.57e5 | – | 19666 | 3946 |
| Strump (GeneID 39766) | DRSC09872 | 1.28e5 | – | – | 6515 | 3686 |
| Idh3b (GeneID 42586) | DRSC16040 | 1.08e5 | 79363 | – | 4052 | 3341 |
| CG17097 (GeneID 34461) | DRSC02569 | 1.05e5 | 39064 | – | 2913 | 3197 |
| CG7407 (GeneID 40430) | DRSC11824 | 97945 | 87480 | – | 4084 | 3721 |
| CG12093 (GeneID 38343) | DRSC08252 | 1.70e5 | 1.12e5 | – | 7131 | 2854 |
| E(spl)m8-HLH (GeneID 43161) | DRSC16654 | 5.63e5 | 1.14e5 | – | 33121 | 3082 |
| ome (GeneID 44297) | DRSC09322 | 2.31e5 | – | – | 4827 | – |
| ome (GeneID 44297) | DRSC10282 | 1.01e5 | – | – | 2651 | 2825 |
| ome (GeneID 44297) | DRSC11380 | 71648 | – | – | 3532 | 2010 |
| CG14191 (GeneID 32893) | DRSC19546 | 1.01e5 | 2.92e5 | – | 1536 | 13098 |
| SMC1 (GeneID 42853) | DRSC16846 | 6.34e5 | 87447 | – | 30282 | 2531 |
| RpL40 (GeneID 33629) | DRSC00782 | 35361 (active) | 21504 | – | 1083 | 4425 |
| CG4546 (GeneID 41922) | DRSC15593 | 1.02e5 | 1.03e5 | – | 1584 | 2355 |
| CG31717 (GeneID 318911) | DRSC01121 | 4.57e5 | 1.47e5 | – | 26116 | 6539 |
| for (GeneID 44817) | DRSC00195 | 3.73e5 | 2.03e5 | – | 17984 | 7609 |
| for (GeneID 44817) | DRSC00818 | 92832 | 84145 | – | 4017 | 3853 |
| CG31688 (GeneID 35314) | DRSC02117 | 57508 | 31597 | – | 1883 | 3060 |
| CG31688 (GeneID 35314) | DRSC02682 | 65760 | 38853 | – | 2224 | 4354 |
| CG18301 (GeneID 34451) | DRSC02662 | 91216 | 48432 | – | 2407 | 4432 |
| NimB5 (GeneID 34815) | DRSC01885 | 1.29e5 | 61980 | – | 3424 | 5809 |
| SP1029 (GeneID 53473) | DRSC16848 | 84498 | 88093 | – | 2234 | 2795 |
| hiw (GeneID 32429) | DRSC20338 | 1.31e5 (active) | 72036 | – | 9057 | 3161 |
| hiw (GeneID 32429) | DRSC20339 | 57163 | 1.30e5 | – | 1426 | 6726 |
| CG14507 (GeneID 43461) | DRSC14859 | 82200 | 1.07e5 | – | 2491 | 2755 |
